Some entries share one result that the patent states for a list of compounds. Some ranges recur; such a range may be that of the whole group of compounds.
Legend:
filaggrin gene = assay: Filaggrin gene expression test by acyl valines or acyl alanines (real time PCR, 24 hours); type: cell-based, human; details: 10 or 500 μM, in words
Protocol: Human normal epidermal keratinocytes NHEK (NB) (manufactured by KURABO INDUSTRIES LTD.) were precultured with HuMedia-KG2 (manufactured by KURABO INDUSTRIES LTD.) and the precultured human normal epidermal keratinocytes were adjusted in a concentration of 15×10^4 cells/mL. After adjusting the concentration, 2 mL of the culture solution (that is, 30×10^4 cells/well) was poured to a plate having 6 wells and the poured culture solution was cultivated for 1 day. […] C12Ala), decanoyl-alanine (Example 21: C10Ala), octanoyl-alanine (Example 22: C8Ala), hexanoyl-alanine (Example 23: C6Ala), and butanoyl-alanine (Example 24: C4Ala)) were added to the wells so that each of the samples has the concentration illustrated in respective graphs and the added samples were reacted for 24 hours. After the reaction, entire RNA was extracted from the cells and subjected to reverse transcription. The amplified amounts of the target gene (filaggrin) were measured by real time PCR (n=2). […] GAPDH was used as a corrected gene. Calculation was carried out using a comparative CT method. TaqMan (registered trademark) Gene Expression was used as a primer and a probe and FAM was used as a fluorescent dye. The following evaluation was carried out depending on the amplified amounts. The results are listed in Table 2 and 3 and illustrated in FIGS. 4 and 5.

[1] = tested on: target genes (filaggrin, involucrin, transglutaminase (TG) 1, keratin 10, and loricrin); assay: Amplified amount of moisturizing-related protein genes by octanoyl neutral amino acids (real time PCR, 48 hours); type: cell-based, human; details: NHEK (NB) keratinocytes, compared with Comparative Examples 1 and 2 (FIGS. 1 and 2)
[2] = tested on: Human normal epidermal keratinocytes NHEK (NB); assay: Cytotoxicity test (Neutral Red, cell survival rate); type: cell-based; details: 500 μM, 24 hours, in words
Protocol: Human normal epidermal keratinocytes NHEK (NB) (manufactured by KURABO INDUSTRIES LTD.) were precultured with HuMedia-KG2 (manufactured by KURABO INDUSTRIES LTD.) and the precultured human normal epidermal keratinocytes were adjusted in a concentration of 15×10^4 cells/mL. After adjusting the concentration, 2 mL of the culture solution (that is, 30×10^4 cells/well) was poured to a plate having 6 wells and the poured culture solution was cultivated for 1 day. Samples (lauroyl-valine (Example 25: C12Val), decanoyl-valine (Example 26: C10Val), octanoyl-valine (Example 27: C8Val), hexanoyl-valine (Example 28: C6Val), butanoyl-valine (Example 29: C4Val), and acetyl-valine (Example 30: C2Val)) were added to the wells so that each of the samples has the concentration illustrated in respective graphs and the added samples were reacted for 24 hours. Thereafter, the culture medium was discarded and replaced with 2 mL/well of Neutral Red solution. The resultant sample was further cultured for 2 hours. As the Neutral Red solution, a solution prepared by diluting Neutral Red (manufactured by KURABO INDUSTRIES LTD.) with HuMedia-KG2 culture medium/normal saline solution (2:1) to 1/100 was used. The cells stained with the Neutral Red solution were washed with PBS (-) one time, thereafter fixed by 1.5 mL/well of 1% CaCl2/1% formalin solution, extracted by adding 1.5 mL/well of 1% acetic acid/50% ethanol solution at room temperature for 20 minutes. The light absorbance of the resultant sample was measured using a plate reader at 540/630 nm.
The following evaluation was carried out depending on the cell survival rates. The results are listed in Table 4 and illustrated in FIG. 6.

CCCCCC(=O)N[C@@H](C)C(=O)O [Example 23, hexanoyl-alanine]
amplification of the filaggrin gene (filaggrin gene): can amplify the filaggrin gene

CCCCCCCC(=O)N[C@H](C(=O)O)C(C)C [Example 16, octanoyl-valine]
amplified amounts of each of the target genes [1]: larger than those of Comparative Examples 1 and 2 | amplification of the filaggrin gene (filaggrin gene): can amplify the filaggrin gene | cytotoxicity [2]: low

CCCCCC(=O)N[C@H](C(=O)O)C(C)C [Example 17, hexanoyl-valine]
amplification of the filaggrin gene (filaggrin gene): can amplify the filaggrin gene | cytotoxicity [2]: low

CCCCCCCCCCCC(=O)N[C@H](C(=O)O)C(C)C [Example 14, lauroyl-valine]
amplification of the filaggrin gene (filaggrin gene): can amplify the filaggrin gene

CCCC(=O)N[C@@H](C)C(=O)O [Example 24, butanoyl-alanine]
amplification of the filaggrin gene (filaggrin gene): can amplify the filaggrin gene

CCCCCCCC(=O)N[C@@H](C)C(=O)O [Example 22, octanoyl-alanine]
amplified amounts of each of the target genes [1]: larger than those of Comparative Examples 1 and 2 | amplification of the filaggrin gene (filaggrin gene): can amplify the filaggrin gene

CCCCCCCC(=O)NCC(=O)O [Example 5, octanoyl-glycine]
amplified amounts of each of the target genes [1]: larger than those of Comparative Examples 1 and 2

CC(=O)N[C@H](C(=O)O)C(C)C [Example 19, acetyl-valine]
amplification of the filaggrin gene (filaggrin gene): can amplify the filaggrin gene | cytotoxicity [2]: low

CCCCCCCC(=O)N[C@H](C(=O)O)[C@@H](C)CC [Example 4, octanoyl-isoleucine]
amplified amounts of each of the target genes [1]: larger than those of Comparative Examples 1 and 2

CCCC(=O)N[C@H](C(=O)O)C(C)C [Example 18, butanoyl-valine]
amplification of the filaggrin gene (filaggrin gene): can amplify the filaggrin gene | cytotoxicity [2]: low

CCCCCCCCCC(=O)N[C@@H](C)C(=O)O [Example 21, decanoyl-alanine]
amplification of the filaggrin gene (filaggrin gene): can amplify the filaggrin gene

CCCCCCCCCC(=O)N[C@H](C(=O)O)C(C)C [Example 15, decanoyl-valine]
amplification of the filaggrin gene (filaggrin gene): can amplify the filaggrin gene | cytotoxicity [2]: low

CCCCCCCC(=O)N[C@@H](CC(C)C)C(=O)O [Example 3, octanoyl-leucine]
amplified amounts of each of the target genes [1]: larger than those of Comparative Examples 1 and 2

From patent US10406086B2, “Moisturizer and cosmetic including the same” (AJINOMOTO CO., INC., priority 2015, dated 2019)
